Some of the results follow.
What was measured:
Assay in all cases: log2 fold change, soluble protein after heating vs DMSO (PISA); higher = thermal stabilisation; K562 cells, 10 uM, 30 min; active = over 0.2 and 3.5 SD of the protein, either way, in both replicates (recomputed)
bafetinib = compound: Cc1ccc(NC(=O)c2ccc(CN3CC[C@H](N(C)C)C3)c(C(F)(F)F)c2)cc1Nc1nccc(-c2cncnc2)n1 [bafetinib]
Procedure, shortened: (§1)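 K562 cells at 2×10^6 cells/mL were treated with 10 μM compound for 30 min. Aliquots were heated for 3 min across 48°C-58°C, pooled, and extracted in PBS with 0.5% NP-40 at 4°C; soluble protein was the supernatant after 21,000xg for 90 min. Soluble protein was quantified by TMTpro 16plex LC-MS/MS with channel sums equalised, and reported as log2 fold change in thermal stability against DMSO controls, with values from duplicates.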

The chains behind the UniProt entries cited, without tags or fusion partners. Where a name states a change or a piece, a line headed by the entry shows the natural chain unless it says otherwise.
UniProt O00483, whole entry, looked up: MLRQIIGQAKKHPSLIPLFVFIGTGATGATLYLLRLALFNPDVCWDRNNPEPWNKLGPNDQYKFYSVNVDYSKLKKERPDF
UniProt Q9UJ70, whole entry, looked up: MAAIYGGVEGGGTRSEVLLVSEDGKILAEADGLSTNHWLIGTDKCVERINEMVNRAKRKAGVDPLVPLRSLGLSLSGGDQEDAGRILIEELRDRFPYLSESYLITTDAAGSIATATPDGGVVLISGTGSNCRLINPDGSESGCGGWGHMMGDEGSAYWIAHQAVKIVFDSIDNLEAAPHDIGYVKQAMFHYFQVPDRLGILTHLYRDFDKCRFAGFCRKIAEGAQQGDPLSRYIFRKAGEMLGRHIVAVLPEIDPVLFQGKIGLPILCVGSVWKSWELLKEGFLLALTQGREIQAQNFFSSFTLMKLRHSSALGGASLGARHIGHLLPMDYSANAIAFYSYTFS
UniProt O75251, whole entry, looked up: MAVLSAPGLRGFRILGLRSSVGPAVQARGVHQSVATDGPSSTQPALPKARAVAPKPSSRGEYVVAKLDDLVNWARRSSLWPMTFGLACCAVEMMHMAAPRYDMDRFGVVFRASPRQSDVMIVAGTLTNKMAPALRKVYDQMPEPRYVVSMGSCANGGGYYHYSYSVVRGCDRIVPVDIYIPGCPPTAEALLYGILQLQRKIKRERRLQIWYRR
UniProt O95544: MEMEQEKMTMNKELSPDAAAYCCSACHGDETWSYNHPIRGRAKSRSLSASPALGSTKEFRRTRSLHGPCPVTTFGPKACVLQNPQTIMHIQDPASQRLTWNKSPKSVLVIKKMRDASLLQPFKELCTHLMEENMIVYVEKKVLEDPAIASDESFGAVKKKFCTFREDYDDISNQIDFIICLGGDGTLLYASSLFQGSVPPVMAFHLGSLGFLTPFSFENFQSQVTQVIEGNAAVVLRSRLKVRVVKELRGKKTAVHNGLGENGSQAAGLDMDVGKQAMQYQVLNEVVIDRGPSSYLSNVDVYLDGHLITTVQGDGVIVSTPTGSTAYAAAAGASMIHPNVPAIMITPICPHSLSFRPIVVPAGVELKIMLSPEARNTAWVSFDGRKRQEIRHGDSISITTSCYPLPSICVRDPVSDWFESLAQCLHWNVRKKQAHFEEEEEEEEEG
UniProt Q8NCW5: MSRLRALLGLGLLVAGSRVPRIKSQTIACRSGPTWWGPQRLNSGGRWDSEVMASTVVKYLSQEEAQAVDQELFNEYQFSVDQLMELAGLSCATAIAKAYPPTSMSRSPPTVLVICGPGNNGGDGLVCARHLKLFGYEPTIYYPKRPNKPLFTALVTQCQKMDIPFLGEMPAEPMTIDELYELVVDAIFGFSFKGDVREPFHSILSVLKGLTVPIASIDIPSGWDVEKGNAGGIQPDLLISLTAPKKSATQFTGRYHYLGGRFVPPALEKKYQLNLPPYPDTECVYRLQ
UniProt Q5VZE5: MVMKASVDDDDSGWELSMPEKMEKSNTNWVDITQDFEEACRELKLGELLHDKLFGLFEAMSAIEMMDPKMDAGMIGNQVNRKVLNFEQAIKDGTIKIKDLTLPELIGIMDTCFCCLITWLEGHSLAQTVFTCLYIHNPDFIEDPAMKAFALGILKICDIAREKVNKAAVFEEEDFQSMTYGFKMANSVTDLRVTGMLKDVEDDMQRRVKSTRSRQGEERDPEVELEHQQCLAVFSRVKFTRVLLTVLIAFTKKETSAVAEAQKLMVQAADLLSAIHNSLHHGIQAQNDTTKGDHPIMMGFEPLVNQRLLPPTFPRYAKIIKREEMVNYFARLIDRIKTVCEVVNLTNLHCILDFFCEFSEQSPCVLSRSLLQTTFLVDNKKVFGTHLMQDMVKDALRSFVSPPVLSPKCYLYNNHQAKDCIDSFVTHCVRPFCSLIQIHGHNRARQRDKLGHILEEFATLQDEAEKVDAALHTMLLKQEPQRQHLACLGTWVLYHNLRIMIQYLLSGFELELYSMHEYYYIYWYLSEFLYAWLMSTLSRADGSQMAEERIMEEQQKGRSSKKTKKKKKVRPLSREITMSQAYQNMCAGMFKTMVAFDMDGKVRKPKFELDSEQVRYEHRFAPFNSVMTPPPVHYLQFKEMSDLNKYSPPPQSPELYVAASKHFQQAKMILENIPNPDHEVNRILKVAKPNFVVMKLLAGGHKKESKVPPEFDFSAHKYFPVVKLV
UniProt Q6XQN6: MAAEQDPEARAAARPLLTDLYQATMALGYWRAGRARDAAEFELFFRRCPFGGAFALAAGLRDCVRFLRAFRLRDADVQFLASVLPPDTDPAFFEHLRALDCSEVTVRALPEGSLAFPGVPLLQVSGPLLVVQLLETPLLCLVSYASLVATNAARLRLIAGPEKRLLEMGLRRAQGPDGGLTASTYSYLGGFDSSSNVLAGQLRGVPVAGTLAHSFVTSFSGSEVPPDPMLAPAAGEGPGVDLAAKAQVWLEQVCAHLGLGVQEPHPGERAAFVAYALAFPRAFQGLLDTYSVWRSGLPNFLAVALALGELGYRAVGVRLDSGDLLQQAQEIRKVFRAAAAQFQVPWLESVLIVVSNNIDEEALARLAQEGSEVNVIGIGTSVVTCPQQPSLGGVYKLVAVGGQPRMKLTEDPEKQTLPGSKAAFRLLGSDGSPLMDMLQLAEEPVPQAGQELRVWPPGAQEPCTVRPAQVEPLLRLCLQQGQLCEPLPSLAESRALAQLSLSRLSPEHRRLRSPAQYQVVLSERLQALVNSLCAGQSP
UniProt O75376, whole entry, looked up: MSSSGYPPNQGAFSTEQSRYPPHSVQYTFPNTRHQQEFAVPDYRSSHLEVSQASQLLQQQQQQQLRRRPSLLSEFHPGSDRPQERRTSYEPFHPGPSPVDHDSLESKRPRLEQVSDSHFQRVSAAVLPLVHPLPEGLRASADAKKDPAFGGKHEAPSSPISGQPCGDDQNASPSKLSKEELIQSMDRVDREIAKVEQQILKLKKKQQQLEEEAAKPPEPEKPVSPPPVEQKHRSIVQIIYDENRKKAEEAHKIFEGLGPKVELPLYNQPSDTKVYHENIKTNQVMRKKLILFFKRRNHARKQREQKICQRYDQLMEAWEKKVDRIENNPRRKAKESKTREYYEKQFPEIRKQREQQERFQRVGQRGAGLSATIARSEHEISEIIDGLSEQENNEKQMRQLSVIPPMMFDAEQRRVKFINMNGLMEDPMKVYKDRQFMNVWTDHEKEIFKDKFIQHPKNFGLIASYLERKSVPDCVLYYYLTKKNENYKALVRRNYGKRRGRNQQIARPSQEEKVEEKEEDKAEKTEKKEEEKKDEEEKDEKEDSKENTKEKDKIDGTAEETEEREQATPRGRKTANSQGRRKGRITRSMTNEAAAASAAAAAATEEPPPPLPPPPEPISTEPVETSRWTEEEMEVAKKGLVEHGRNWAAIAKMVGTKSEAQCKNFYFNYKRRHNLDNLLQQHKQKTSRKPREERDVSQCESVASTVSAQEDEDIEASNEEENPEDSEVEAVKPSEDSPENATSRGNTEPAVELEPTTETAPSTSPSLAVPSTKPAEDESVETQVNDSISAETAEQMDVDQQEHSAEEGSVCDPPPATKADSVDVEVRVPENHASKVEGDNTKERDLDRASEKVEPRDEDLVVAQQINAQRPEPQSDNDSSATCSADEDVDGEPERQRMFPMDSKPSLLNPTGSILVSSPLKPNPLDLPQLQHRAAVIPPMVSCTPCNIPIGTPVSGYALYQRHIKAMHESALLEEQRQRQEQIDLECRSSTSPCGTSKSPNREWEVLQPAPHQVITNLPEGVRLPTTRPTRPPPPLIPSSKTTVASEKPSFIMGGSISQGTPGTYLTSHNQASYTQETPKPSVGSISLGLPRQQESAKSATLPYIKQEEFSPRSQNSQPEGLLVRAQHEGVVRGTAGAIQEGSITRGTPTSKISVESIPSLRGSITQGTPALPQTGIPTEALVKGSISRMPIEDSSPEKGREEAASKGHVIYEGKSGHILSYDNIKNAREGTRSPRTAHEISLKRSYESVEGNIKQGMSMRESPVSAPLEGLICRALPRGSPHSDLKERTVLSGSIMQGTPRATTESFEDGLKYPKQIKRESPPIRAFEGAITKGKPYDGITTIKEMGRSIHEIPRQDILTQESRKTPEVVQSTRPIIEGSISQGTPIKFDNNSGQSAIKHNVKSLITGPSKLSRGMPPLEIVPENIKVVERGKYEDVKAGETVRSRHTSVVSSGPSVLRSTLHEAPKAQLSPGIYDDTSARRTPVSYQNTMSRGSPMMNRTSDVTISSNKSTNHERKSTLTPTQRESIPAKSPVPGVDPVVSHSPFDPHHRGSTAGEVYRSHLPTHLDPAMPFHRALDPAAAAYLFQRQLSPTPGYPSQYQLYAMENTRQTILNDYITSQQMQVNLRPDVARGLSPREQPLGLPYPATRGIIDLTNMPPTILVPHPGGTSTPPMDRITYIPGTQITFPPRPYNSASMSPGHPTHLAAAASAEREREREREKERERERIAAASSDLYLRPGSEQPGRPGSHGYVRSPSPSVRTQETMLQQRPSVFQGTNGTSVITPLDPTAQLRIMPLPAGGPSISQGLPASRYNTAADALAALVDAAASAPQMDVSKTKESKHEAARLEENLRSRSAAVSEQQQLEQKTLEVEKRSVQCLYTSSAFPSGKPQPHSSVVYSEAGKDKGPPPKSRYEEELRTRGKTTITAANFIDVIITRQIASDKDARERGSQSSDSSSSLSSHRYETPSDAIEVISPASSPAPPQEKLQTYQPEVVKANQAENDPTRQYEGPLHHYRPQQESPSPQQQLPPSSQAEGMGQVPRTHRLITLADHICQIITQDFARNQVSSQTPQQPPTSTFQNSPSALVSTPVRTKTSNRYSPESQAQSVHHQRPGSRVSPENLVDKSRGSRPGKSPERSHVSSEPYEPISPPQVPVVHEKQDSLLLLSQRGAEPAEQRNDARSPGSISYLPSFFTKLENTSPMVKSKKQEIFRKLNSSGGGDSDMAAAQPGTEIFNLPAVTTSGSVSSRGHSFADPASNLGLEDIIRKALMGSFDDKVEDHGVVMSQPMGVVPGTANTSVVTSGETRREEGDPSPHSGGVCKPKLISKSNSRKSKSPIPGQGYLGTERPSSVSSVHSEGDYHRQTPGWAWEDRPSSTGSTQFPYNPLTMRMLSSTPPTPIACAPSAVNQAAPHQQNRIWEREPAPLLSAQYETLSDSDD

[1] = compound: Cc1cccc(CC(=O)N2CCc3c2ccc(-c2cn(C)c4ncnc(N)c24)c3F)n1
Procedure, shortened: as §1

nilotinib = compound: Cc1cn(-c2cc(NC(=O)c3ccc(C)c(Nc4nccc(-c5cccnc5)n4)c3)cc(C(F)(F)F)c2)cn1 [nilotinib]
Procedure, shortened: as §1

[2] = compound: Cc1nc(Nc2n[nH]c3c2CN(C(=O)N[C@H](CN(C)C)c2ccccc2)C3(C)C)c2sccc2n1
Procedure, shortened: as §1

dasatinib = compound: Cc1nc(Nc2ncc(C(=O)Nc3c(C)cccc3Cl)s2)cc(N2CCN(CCO)CC2)n1 [dasatinib]
Procedure, shortened: as §1

[3] = compound: Cc1ncc(-c2ccnc(Nc3ccc(S(C)(=O)=O)cc3)n2)n1C(C)C
Procedure, shortened: as §1

[4] = compound: Cn1cc(-c2ccc3c(c2)CCN3C(=O)Cc2cccc(C(F)(F)F)c2)c2c(N)ncnc21
Procedure, shortened: as §1

[5] = compound: Cn1cc(-c2ccc3nnc(C(F)(F)c4ccc5ncccc5c4)n3n2)cn1
Procedure, shortened: as §1

tipifarnib = compound: Cn1cncc1[C@@](N)(c1ccc(Cl)cc1)c1ccc2c(c1)c(-c1cccc(Cl)c1)cc(=O)n2C [tipifarnib]
Procedure, shortened: as §1

mubritinib = compound: FC(F)(F)c1ccc(/C=C/c2nc(COc3ccc(CCCCn4ccnn4)cc3)co2)cc1 [mubritinib]
Procedure, shortened: as §1

[6] = compound: NC(=O)Nc1cc(-c2cccc(F)c2)sc1C(=O)N[C@H]1CCCNC1
Procedure, shortened: as §1

[7] = compound: NC(=O)c1cnc(N[C@@H]2CCCC[C@@H]2N)nc1Nc1cccc(-n2nccn2)c1
Procedure, shortened: as §1

[8] = compound: NC1(c2ccc(-c3nc4ccn5c(=O)[nH]nc5c4cc3-c3ccccc3)cc2)CCC1
Procedure, shortened: as §1

[9] = compound: NCC(=O)Nc1ccc(-n2nc(C(F)(F)F)cc2-c2ccc3c(ccc4ccccc43)c2)cc1
Procedure, shortened: as §1

entinostat = compound: Nc1ccccc1NC(=O)c1ccc(CNC(=O)OCc2cccnc2)cc1 [entinostat]
Procedure, shortened: as §1

vorinostat = compound: O=C(CCCCCCC(=O)Nc1ccccc1)NO [vorinostat]
Procedure, shortened: as §1

citarinostat = compound: O=C(CCCCCCNC(=O)c1cnc(N(c2ccccc2)c2ccccc2Cl)nc1)NO [citarinostat]
Procedure, shortened: as §1

silmitasertib = compound: O=C(O)c1ccc2c(c1)nc(Nc1cccc(Cl)c1)c1ccncc12 [silmitasertib]
Procedure, shortened: as §1

[10] = compound: O=C1NC(=O)C(c2cnc3ccccn23)=C1c1cn2c3c(cc(F)cc13)CN(C(=O)N1CCCCC1)CC2
Procedure, shortened: as §1

[11] = compound: c1cc(OCCN2CCCCC2)cc(-c2n[nH]c3ccc(-c4nnc[nH]4)cc23)c1
Procedure, shortened: as §1

Measured: log2 fold change

NDUFA4 (UniProt O00483)
inactive: bafetinib -0.043 | [1] 0.014 | nilotinib 0.024 | [2] 0.02 | dasatinib 0.032 | [3] -0.074 | [4] 0.039 | [5] 0.239 | tipifarnib 0.054 | mubritinib 0.018 | [6] 0.026 | [7] 0.009 | [8] -0.075 | [9] -0.013 | entinostat 0.061 | vorinostat -0.11 | citarinostat 0.037 | silmitasertib -0.005 | [10] -0.056 | [11] -0.098

NAGK isoform 2 (UniProt Q9UJ70)
inactive: bafetinib -0.048 | [1] -0.064 | nilotinib -0.049 | [2] 0.042 | dasatinib 0.079 | [3] 0.014 | [4] 0.022 | [5] -0.013 | tipifarnib -0.013 | mubritinib 0.029 | [6] -0.036 | [7] -0.017 | [8] -0.035 | [9] 0.013 | entinostat -0.046 | vorinostat -0.069 | citarinostat -0.014 | silmitasertib -0.049 | [10] -0.062 | [11] 0

NDUFS7 (UniProt O75251)
inactive: bafetinib -0.047 | [1] 0.06 | nilotinib -0.03 | [2] 0.021 | dasatinib 0.01 | [3] -0.007 | [4] 0.034 | [5] 0.036 | tipifarnib -0.035 | mubritinib 0.095 | [6] -0.025 | [7] -0.079 | [8] -0.113 | [9] -0.057 | entinostat -0.011 | vorinostat 0.103 | citarinostat 0.013 | silmitasertib -0.003 | [10] -0.066 | [11] -0.027

NADK (UniProt O95544)
inactive: bafetinib -0.033 | [1] -0.012 | nilotinib 0.018 | [2] -0.006 | dasatinib 0.049 | [3] -0.023 | [4] 0.03 | [5] 0.001 | tipifarnib 0.008 | mubritinib 0.031 | [6] -0.013 | [7] -0.03 | [8] 0.004 | [9] -0.016 | entinostat -0.007 | vorinostat -0.037 | citarinostat 0.014 | silmitasertib -0.026 | [10] -0.01 | [11] -0.058

NAXE (UniProt Q8NCW5)
inactive: bafetinib -0.031 | [1] 0.038 | nilotinib 0 | [2] 0.007 | dasatinib 0.043 | [3] -0.012 | [4] 0.082 | [5] 0.064 | tipifarnib -0.049 | mubritinib -0.026 | [6] 0.001 | [7] -0.007 | [8] 0.043 | [9] 0 | entinostat 0.03 | vorinostat -0.012 | citarinostat 0.013 | silmitasertib -0.029 | [10] -0.092 | [11] -0.019

NAA35 (UniProt Q5VZE5)
inactive: bafetinib -0.035 | [1] 0.065 | nilotinib -0.013 | [2] 0.001 | dasatinib -0.106 | [3] -0.004 | [4] 0.042 | [5] -0.001 | tipifarnib -0.01 | mubritinib 0.004 | [6] -0.012 | [7] -0.045 | [8] -0.082 | [9] 0.019 | entinostat 0.012 | vorinostat 0.074 | citarinostat 0.035 | silmitasertib -0.05 | [10] 0.004 | [11] -0.041

NAPRT (UniProt Q6XQN6)
inactive: bafetinib -0.027 | [1] -0.023 | nilotinib -0.02 | [2] 0.009 | dasatinib 0.04 | [3] 0 | [4] 0.042 | [5] 0.048 | tipifarnib 0 | mubritinib 0.045 | [6] -0.008 | [7] 0.003 | [8] -0.003 | [9] -0.006 | entinostat -0.023 | vorinostat -0.027 | citarinostat 0.02 | silmitasertib -0.034 | [10] -0.05 | [11] -0.019

NCOR1 (UniProt O75376)
inactive: bafetinib -0.009 | [1] -0.056 | nilotinib 0.182 | [2] -0.046 | dasatinib -0.091 | [3] 0.058 | [4] 0.041 | [5] -0.049 | tipifarnib 0.103 | mubritinib 0.041 | [6] 0.096 | [7] -0.057 | [8] -0.005 | [9] -0.072 | entinostat 0.007 | vorinostat -0.059 | citarinostat -0.028 | silmitasertib 0.001 | [10] -0.044 | [11] -0.024

Source: the supplement of paper PMC10849652
